Laboratory results published in the supplement of paper PMC10849652.
The list shows a part of the results.

The chains behind the UniProt entries cited, without tags or fusion partners. Where a name states a change or a piece, a line headed by the entry shows the natural chain unless it says otherwise.
UniProt O14796: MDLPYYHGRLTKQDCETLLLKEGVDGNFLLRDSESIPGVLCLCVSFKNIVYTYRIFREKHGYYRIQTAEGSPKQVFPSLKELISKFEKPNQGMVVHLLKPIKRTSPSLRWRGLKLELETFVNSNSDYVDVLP
UniProt Q8N196: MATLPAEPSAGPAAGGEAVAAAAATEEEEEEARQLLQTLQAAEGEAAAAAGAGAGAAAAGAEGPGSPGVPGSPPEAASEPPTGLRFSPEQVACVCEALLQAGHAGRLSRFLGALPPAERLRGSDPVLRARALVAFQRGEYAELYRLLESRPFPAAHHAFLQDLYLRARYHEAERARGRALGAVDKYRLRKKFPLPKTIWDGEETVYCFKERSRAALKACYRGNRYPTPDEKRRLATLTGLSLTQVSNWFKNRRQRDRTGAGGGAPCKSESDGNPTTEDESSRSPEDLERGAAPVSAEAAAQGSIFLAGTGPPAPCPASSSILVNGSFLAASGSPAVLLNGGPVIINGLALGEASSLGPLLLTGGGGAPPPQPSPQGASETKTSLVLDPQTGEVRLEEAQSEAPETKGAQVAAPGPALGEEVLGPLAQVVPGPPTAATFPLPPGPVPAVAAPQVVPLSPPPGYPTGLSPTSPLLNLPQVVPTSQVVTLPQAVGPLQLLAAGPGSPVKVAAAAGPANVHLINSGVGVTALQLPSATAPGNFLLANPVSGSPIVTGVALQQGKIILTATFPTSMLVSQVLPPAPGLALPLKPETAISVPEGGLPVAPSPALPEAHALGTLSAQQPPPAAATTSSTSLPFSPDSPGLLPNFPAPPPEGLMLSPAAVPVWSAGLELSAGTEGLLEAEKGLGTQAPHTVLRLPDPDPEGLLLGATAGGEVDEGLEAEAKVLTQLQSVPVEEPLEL
UniProt A1X283: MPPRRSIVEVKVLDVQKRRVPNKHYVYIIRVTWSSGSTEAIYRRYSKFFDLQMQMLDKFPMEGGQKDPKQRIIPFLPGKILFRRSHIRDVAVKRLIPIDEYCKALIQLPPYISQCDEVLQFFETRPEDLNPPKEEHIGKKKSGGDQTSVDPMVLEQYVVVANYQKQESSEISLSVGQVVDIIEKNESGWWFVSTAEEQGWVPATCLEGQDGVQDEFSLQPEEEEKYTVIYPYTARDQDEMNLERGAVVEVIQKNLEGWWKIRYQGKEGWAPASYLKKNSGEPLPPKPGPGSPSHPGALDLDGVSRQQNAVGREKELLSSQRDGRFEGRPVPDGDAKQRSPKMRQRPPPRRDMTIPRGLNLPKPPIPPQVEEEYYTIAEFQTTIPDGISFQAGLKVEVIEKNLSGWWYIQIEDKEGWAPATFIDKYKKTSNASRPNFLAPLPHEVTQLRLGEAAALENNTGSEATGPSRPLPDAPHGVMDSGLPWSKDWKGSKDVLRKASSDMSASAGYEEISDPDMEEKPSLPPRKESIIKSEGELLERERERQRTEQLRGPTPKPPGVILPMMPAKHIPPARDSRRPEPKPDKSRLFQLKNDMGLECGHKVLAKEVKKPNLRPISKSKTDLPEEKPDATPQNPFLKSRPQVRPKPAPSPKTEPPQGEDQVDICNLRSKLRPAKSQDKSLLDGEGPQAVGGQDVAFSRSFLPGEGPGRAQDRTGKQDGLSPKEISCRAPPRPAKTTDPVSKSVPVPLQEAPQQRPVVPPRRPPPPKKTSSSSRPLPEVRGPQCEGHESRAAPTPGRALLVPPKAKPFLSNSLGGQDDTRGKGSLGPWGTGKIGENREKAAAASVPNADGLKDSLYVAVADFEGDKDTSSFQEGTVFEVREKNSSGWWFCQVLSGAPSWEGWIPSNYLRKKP
UniProt Q9NRX5: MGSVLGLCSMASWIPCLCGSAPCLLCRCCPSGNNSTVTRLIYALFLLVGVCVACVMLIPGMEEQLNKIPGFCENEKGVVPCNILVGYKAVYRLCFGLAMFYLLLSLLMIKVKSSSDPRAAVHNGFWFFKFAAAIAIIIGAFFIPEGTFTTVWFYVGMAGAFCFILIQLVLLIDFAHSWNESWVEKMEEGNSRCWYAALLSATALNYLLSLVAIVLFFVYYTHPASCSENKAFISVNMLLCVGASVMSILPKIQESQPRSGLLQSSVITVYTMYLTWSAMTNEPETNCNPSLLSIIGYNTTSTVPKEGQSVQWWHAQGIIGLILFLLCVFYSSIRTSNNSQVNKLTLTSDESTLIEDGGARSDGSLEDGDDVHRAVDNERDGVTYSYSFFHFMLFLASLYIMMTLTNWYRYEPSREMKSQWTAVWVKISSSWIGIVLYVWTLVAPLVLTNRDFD
UniProt P05546: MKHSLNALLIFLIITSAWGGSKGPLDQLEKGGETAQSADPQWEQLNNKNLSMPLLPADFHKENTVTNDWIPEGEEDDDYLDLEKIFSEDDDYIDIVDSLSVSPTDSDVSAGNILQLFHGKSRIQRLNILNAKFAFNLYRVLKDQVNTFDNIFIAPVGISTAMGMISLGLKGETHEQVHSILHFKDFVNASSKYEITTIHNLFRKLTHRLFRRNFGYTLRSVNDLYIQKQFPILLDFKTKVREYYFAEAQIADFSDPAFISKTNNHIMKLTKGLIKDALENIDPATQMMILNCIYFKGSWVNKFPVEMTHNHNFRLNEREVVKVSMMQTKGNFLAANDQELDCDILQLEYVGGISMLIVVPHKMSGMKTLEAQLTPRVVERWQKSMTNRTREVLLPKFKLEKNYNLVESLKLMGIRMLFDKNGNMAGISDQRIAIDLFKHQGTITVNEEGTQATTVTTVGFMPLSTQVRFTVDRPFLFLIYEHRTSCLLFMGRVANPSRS
UniProt Q9NP50: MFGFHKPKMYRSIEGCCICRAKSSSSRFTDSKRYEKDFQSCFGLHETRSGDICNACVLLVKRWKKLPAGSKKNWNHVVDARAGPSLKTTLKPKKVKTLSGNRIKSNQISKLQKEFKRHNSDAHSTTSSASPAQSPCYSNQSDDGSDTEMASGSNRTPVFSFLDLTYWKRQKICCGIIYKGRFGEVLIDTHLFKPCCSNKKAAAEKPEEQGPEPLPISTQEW
UniProt Q02383: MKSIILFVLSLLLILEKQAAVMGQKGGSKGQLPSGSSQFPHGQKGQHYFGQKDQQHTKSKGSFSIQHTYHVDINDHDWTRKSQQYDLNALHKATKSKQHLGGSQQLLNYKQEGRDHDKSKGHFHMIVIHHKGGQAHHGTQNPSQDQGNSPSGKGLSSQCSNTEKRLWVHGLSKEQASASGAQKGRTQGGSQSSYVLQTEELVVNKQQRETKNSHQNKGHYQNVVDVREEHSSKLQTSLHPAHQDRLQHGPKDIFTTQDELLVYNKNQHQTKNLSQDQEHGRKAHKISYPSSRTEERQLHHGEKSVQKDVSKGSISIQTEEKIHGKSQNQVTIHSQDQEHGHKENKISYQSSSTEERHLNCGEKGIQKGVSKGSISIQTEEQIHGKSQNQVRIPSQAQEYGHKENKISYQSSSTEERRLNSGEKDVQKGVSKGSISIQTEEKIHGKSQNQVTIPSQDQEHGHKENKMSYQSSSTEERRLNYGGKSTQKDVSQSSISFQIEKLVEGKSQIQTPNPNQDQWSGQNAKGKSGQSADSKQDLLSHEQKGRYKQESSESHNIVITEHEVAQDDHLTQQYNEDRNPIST
UniProt P60059: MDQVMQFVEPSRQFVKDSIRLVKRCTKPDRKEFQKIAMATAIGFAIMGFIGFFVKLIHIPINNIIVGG
UniProt Q15464: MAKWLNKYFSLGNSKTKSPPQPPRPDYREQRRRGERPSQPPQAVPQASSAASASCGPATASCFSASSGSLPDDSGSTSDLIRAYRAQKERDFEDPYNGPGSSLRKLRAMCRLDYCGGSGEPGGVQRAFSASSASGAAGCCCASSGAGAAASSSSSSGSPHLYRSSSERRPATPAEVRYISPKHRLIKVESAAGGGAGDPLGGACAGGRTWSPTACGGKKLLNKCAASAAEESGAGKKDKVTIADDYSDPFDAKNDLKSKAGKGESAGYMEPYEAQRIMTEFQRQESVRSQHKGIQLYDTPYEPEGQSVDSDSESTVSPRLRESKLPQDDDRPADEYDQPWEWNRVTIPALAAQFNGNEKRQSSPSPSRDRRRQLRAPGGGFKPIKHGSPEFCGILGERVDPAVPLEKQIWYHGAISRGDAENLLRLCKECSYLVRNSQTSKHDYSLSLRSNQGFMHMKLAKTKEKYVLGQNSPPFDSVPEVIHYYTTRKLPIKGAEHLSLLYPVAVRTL
UniProt Q8IW75: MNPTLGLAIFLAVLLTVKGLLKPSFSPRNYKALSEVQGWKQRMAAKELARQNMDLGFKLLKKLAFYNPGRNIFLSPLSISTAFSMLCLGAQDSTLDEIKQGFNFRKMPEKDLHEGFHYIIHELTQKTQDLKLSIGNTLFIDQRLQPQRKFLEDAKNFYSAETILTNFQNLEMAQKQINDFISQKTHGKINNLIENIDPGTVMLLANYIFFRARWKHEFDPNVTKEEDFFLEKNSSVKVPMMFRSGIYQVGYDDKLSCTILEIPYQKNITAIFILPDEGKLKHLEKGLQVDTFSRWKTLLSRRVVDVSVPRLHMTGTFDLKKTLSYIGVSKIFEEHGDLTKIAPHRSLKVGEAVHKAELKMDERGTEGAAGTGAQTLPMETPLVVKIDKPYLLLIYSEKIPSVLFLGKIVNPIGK
UniProt P84101: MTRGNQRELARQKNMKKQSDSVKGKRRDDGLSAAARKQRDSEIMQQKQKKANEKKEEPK
UniProt Q96EE3: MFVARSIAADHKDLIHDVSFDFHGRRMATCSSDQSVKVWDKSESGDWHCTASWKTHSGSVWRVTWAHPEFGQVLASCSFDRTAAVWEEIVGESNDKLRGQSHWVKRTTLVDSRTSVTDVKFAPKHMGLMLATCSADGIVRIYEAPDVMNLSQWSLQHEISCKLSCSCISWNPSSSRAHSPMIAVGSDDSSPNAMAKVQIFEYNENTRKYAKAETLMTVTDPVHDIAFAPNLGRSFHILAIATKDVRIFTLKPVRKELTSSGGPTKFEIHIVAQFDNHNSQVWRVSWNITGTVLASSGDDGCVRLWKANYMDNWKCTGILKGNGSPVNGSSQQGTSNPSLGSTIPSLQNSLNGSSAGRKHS
UniProt Q13796: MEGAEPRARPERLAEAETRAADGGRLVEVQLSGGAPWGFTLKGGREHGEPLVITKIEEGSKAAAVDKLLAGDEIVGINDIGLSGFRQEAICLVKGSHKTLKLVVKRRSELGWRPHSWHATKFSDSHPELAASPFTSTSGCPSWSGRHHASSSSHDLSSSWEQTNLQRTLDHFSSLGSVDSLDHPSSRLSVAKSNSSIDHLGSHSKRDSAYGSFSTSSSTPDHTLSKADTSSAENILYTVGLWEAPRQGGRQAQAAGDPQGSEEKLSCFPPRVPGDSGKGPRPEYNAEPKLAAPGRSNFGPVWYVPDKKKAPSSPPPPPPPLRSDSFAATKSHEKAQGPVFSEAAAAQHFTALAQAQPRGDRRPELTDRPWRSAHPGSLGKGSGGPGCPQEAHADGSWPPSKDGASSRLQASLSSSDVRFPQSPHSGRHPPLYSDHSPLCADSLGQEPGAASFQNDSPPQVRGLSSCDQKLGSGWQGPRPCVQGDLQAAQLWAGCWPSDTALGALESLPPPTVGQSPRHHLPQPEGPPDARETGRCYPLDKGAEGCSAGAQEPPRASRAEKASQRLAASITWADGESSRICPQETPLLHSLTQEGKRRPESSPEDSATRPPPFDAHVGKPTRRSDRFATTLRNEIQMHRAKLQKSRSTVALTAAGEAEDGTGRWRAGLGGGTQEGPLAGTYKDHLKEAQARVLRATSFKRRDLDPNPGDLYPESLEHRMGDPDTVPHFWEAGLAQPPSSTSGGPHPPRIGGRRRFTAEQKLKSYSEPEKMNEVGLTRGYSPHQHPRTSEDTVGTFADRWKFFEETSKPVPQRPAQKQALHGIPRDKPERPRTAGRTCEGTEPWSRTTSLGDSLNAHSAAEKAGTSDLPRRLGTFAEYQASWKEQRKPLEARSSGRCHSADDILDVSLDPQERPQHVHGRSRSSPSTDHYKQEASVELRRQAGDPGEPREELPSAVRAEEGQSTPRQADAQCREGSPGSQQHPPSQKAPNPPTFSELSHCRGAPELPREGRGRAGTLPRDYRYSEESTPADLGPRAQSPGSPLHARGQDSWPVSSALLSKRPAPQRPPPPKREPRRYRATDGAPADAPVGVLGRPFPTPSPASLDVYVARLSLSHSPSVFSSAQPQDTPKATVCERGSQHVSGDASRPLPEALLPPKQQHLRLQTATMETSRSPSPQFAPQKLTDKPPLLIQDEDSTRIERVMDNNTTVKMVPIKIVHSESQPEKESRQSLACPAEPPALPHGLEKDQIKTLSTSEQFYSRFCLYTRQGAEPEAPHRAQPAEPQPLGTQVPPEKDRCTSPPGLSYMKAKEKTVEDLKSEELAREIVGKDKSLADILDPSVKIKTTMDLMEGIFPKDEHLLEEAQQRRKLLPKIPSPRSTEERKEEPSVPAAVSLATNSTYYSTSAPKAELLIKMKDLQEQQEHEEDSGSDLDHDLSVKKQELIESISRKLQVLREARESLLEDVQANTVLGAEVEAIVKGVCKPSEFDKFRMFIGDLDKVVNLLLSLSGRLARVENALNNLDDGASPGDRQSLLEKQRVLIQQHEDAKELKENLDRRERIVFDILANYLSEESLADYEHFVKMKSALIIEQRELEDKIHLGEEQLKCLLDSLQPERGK

Assays:
Assay in all cases: log2 fold change, soluble protein after heating vs DMSO (PISA); higher = thermal stabilisation; K562 cells, 10 uM, 30 min; active = over 0.2 and 3.5 SD of the protein, either way, in both replicates (recomputed)
[1] = compound: CS(=O)(=O)c1ccc(-c2cnc(N)c(C(=O)Nc3ccccc3)n2)cc1
Outline: (§1)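 K562 cells at 2×10^6 cells/mL were treated with 10 μM compound for 30 min. Aliquots were heated for 3 min across 48°C-58°C, pooled, and extracted in PBS with 0.5% NP-40 at 4°C; soluble protein was the supernatant after 21,000xg for 90 min. Soluble protein was quantified by TMTpro 16plex LC-MS/MS with channel sums equalised, and reported as log2 fold change in thermal stability against DMSO controls, with values from duplicates.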

[2] = compound: C[C@@H](Oc1cc(-c2cnn(C3CCNCC3)c2)cnc1N)c1c(Cl)ccc(F)c1Cl [crizotinib]
Outline: as §1

[3] = compound: C[C@@H]1COCCN1C2=NC(=NC(=C2)C3(CC3)S(=O)(=O)C)C4=C5C=CNC5=CC=C4
Outline: as §1

[4] = compound: C[C@H](C1=CC=C(C=C1)C(=O)NC2=C3C=CNC3=NC=C2)N
Outline: as §1

[5] = compound: Cc1cc(Nc2cc(CN3CCOCC3)c3nc(C)c(Cc4ccc(Cl)cc4F)n3n2)n[nH]1 [gandotinib]
Outline: as §1

[6] = compound: Cc1cc(SCc2sc(-c3ccc(C(F)(F)F)cc3)nc2C)ccc1OCC(=O)O
Outline: as §1

[7] = compound: Cc1ccc(-n2nc(C(C)(C)C)cc2NC(=O)Nc2ccc(OCCN3CCOCC3)c3ccccc23)cc1 [doramapimod]
Outline: as §1

[8] = compound: Cc1ccc(C(=O)N(CCCN)[C@@H](c2nc3cc(Cl)ccc3c(=O)n2Cc2ccccc2)C(C)C)cc1 [ispinesib]
Outline: as §1

[9] = compound: Cc1cccc(CC(=O)N2CCc3c2ccc(-c2cn(C)c4ncnc(N)c24)c3F)n1
Outline: as §1

[10] = compound: Cc1cn(-c2cc(NC(=O)c3ccc(C)c(Nc4nccc(-c5cccnc5)n4)c3)cc(C(F)(F)F)c2)cn1 [nilotinib]
Outline: as §1

[11] = compound: Cc1nc(Nc2n[nH]c3c2CN(C(=O)N[C@H](CN(C)C)c2ccccc2)C3(C)C)c2sccc2n1
Outline: as §1

[12] = compound: Cc1nc(Nc2ncc(C(=O)Nc3c(C)cccc3Cl)s2)cc(N2CCN(CCO)CC2)n1 [dasatinib]
Outline: as §1

[13] = compound: Cc1ncc(-c2ccnc(Nc3ccc(S(C)(=O)=O)cc3)n2)n1C(C)C
Outline: as §1

[14] = compound: Cn1cc(-c2ccc3c(c2)CCN3C(=O)Cc2cccc(C(F)(F)F)c2)c2c(N)ncnc21
Outline: as §1

[15] = compound: Cn1cc(-c2ccc3nnc(C(F)(F)c4ccc5ncccc5c4)n3n2)cn1
Outline: as §1

[16] = compound: Cn1cncc1[C@@](N)(c1ccc(Cl)cc1)c1ccc2c(c1)c(-c1cccc(Cl)c1)cc(=O)n2C [tipifarnib]
Outline: as §1

[17] = compound: FC(F)(F)c1ccc(/C=C/c2nc(COc3ccc(CCCCn4ccnn4)cc3)co2)cc1 [mubritinib]
Outline: as §1

[18] = compound: C[C@H](Nc1ncnc2nc[nH]c12)c1cc2cccc(Cl)c2c(=O)n1-c1ccccc1 [duvelisib]
Outline: as §1

[19] = compound: Cc1cc(Nc2cc(N3CCN(C)CC3)nc(Sc3ccc(NC(=O)C4CC4)cc3)n2)n[nH]1 [tozasertib]
Outline: as §1

[20] = compound: Cc1ccc(NC(=O)c2ccc(CN3CC[C@H](N(C)C)C3)c(C(F)(F)F)c2)cc1Nc1nccc(-c2cncnc2)n1 [bafetinib]
Outline: as §1

Measured: log2 fold change

SH2D1B (UniProt O14796)
inactive: [1] -0.031 | [3] 0.075 | [4] -0.201 | [5] -0.692 | [6] -0.08 | [7] -0.072 | [8] 0.06 | [9] 0.018 | [10] -0.421 | [11] -0.319 | [13] 0.005 | [14] -0.358 | [15] -0.069 | [16] 0.045 | [17] -0.187
active: [2] -0.765 | [12] -1.18

SELENON (UniProt Q9NZV5)
inactive: [1] 0.125 | [8] -0.057 | [15] -0.072

SFT2D2 (UniProt O95562)
inactive: [1] 0.021 | [3] -0.014 | [4] -0.181 | [18] 0.164 | [5] -0.064 | [19] 0.009 | [6] 0.019 | [8] 0.054 | [20] -0.069 | [9] -0.035 | [10] 0.003 | [11] 0.006 | [12] -0.026 | [13] -0.014 | [14] 0.019 | [15] -0.001 | [16] -0.134 | [17] 0.024

SIX5 (UniProt Q8N196)
inactive: [2] 0.017 | [4] -0.049 | [18] 0.102 | [5] 0.008 | [6] -0.058 | [7] 0.005 | [8] 0.072 | [20] -0.086 | [9] -0.021 | [12] -0.052 | [14] 0.069 | [15] 0.05 | [17] 0.057

SH3PXD2B (UniProt A1X283)
active: [20] -0.954
inactive: [1] 0.002 | [3] 0.246 | [4] 0.055 | [5] 0.077 | [9] -0.058 | [10] -0.124 | [11] 0.129 | [13] -0.152 | [14] 0.024 | [17] 0

SERINC1 (UniProt Q9NRX5)
inactive: [1] 0.075 | [2] -0.197 | [3] 0.037 | [6] -0.016 | [7] 0.068 | [8] -0.048 | [20] -0.135 | [10] 0.121 | [11] 0.081 | [12] -0.034 | [13] -0.064 | [15] 0.054 | [16] -0.112 | [17] 0.057

SERPIND1 (UniProt P05546)
inactive: [2] -0.118 | [3] -0.091 | [4] 0.226 | [5] -0.113 | [7] 0.074 | [9] -0.363 | [10] 0.71 | [11] 0.674 | [13] -0.319 | [14] 0.027 | [17] -0.351

SINHCAF (UniProt Q9NP50)
inactive: [1] 0.789 | [2] 1.75 | [3] 1.03 | [7] 0.485

SEMG2 (UniProt Q02383)
inactive: [1] -0.058 | [3] 0.096 | [4] -0.021 | [5] -0.032 | [20] -0.089 | [9] 0.016 | [10] -0.083 | [11] 0.056 | [13] 0.003 | [14] 0.008 | [17] -0.044

SESN2 (UniProt P58004)
inactive: [1] 0.042 | [2] -0.191 | [3] -0.028 | [4] 0.077 | [5] -0.046 | [6] 0.006 | [7] 0.192 | [8] -0.322 | [20] -0.09 | [9] 0.136 | [10] -0.02 | [11] -0.207 | [12] -0.034 | [13] -0.063 | [14] 0.069 | [15] -0.069 | [16] -0.213 | [17] 0.042

SHFL (UniProt Q9NUL5)
inactive: [1] -0.037 | [3] -0.093 | [5] 0.032 | [19] 0.158 | [8] -0.009 | [20] 0.094 | [9] -0.078 | [10] -0.012 | [11] -0.01 | [13] 0.034 | [15] 0.091 | [16] 0.001 | [17] -0.06

SIK3 (UniProt H0Y4E8)
inactive: [1] -0.144 | [2] 0.084 | [4] 0.027 | [5] 0.118 | [6] -0.056 | [7] -0.058 | [8] 0.185 | [9] -0.122 | [10] -0.053 | [11] -0.179 | [12] -0.037 | [13] 0.003 | [14] -0.016 | [15] 0 | [16] 0.251 | [17] -0.035

SEC61G (UniProt P60059)
inactive: [1] 0.091 | [2] 0.175 | [3] 0.094 | [18] 0.021 | [6] 0.094 | [7] -0.102 | [8] -0.02 | [20] 0.067 | [10] 0.057 | [11] 0.034 | [12] -0.154 | [13] -0.001 | [15] -0.082 | [17] 0

SHB (UniProt Q15464)
inactive: [1] 0.183 | [4] -0.053 | [18] 0.014 | [5] -0.117 | [19] 0.154 | [6] -0.014 | [20] 0.05 | [9] 0.132 | [12] -0.111 | [14] 0.078 | [16] 0.043 | [17] -0.021

SERPINA12 (UniProt Q8IW75)
inactive: [1] -0.189 | [3] 0.001 | [18] -0.19 | [19] 0.273 | [6] -0.308 | [10] 0.311 | [11] -0.025 | [12] -0.967 | [13] 0.077 | [17] -0.084

SHANK2 isoform 3 (UniProt Q9UPX8)
inactive: [1] 0.14 | [2] 0.046 | [3] 0.027 | [7] -0.094 | [10] 0.061 | [11] 0.044 | [13] -0.037

SFT2D1 (UniProt Q8WV19)
inactive: [1] -0.006 | [8] -0.205 | [15] 0.049 | [16] -0.085 | [17] 0.045

Looked up one by one from the list above (2):
SFT2D1 (UniProt Q8WV19)
inactive: [1] -0.006 | [8] -0.205 | [15] 0.049 | [16] -0.085 | [17] 0.045

SHANK2 isoform 3 (UniProt Q9UPX8)
inactive: [1] 0.14 | [2] 0.046 | [3] 0.027 | [7] -0.094 | [10] 0.061 | [11] 0.044 | [13] -0.037

Next part.

SERF2 (UniProt P84101)
inactive: [1] 0.003 | [3] -0.134 | [4] -0.011 | [18] 0.179 | [5] -0.158 | [19] -0.054 | [6] -0.091 | [8] 0.011 | [20] -0.083 | [9] -0.25 | [10] -0.035 | [11] 0.005 | [12] -0.13 | [13] -0.009 | [14] -0.115 | [15] 0.048 | [17] 0.037

SEPTIN5 (UniProt G3XAH0)
inactive: [1] -0.042 | [3] 0.087 | [4] -0.089 | [5] -0.153 | [6] -0.036 | [8] -0.017 | [20] -0.038 | [9] -0.013 | [10] -0.05 | [11] -0.024 | [12] -0.049 | [13] -0.008 | [14] -0.05 | [15] 0.082 | [16] 0.006 | [17] -0.011

SEH1L isoform 1 (UniProt Q96EE3)
inactive: [1] -0.03 | [2] 0.04 | [3] -0.008 | [4] -0.028 | [5] -0.069 | [6] 0.01 | [7] 0.011 | [8] 0.054 | [20] -0.083 | [9] 0.051 | [10] 0.012 | [11] -0.081 | [12] -0.008 | [13] -0.028 | [14] 0.015 | [15] -0.037 | [16] -0.11 | [17] 0.031

SERPINB6, A0A2R8Y7E5
inactive: [2] -0.167 | [3] -0.158 | [7] -0.045 | [20] 0.414 | [17] -0.147

SHROOM2 (UniProt Q13796)
inactive: [1] 0.093 | [2] 0.005 | [3] 0.013 | [4] -0.099 | [5] 0.397 | [6] -0.233 | [7] 0.008 | [20] -0.091 | [9] -0.02 | [10] 0.082 | [11] 0.011 | [12] 0.166 | [13] -0.043 | [14] 0.163 | [16] -0.022 | [17] 0.258
